Measured values as given in patent publication US20260092920A1 (FIBROINOVA BIOMEDICAL TECHNOLOGY GUANGZHOU, published 2026).
These are yes or no findings as the source states them, for the method shown. Some binding calls cover weakened binding; strength is not graded here. For part of these data: Where a sequence is shown, tags or fusion partners need not be part of it.

How the values were obtained:
[1] = molecular target: T1, His-tagged extracellular domain of antigen DDR2 (human) (UniProt Q16832); assay: BLI (ForteBio), His-tagged DDR2 extracellular domain captured on Ni-NTA sensors, nanobody in solution
T1 sequence (looked up): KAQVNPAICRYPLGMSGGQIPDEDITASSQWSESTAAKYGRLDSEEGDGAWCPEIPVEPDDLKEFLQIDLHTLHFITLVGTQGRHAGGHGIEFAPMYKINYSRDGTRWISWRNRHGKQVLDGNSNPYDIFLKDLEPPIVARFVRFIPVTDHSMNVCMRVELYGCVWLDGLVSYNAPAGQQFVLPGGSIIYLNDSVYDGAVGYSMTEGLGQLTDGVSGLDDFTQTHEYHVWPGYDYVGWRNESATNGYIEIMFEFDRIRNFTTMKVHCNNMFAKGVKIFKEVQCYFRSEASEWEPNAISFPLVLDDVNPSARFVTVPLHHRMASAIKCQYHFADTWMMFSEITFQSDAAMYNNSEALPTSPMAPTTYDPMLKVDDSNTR

[2] = molecular target: T2, DDR2 in the brain tissue of model mice (mouse) (UniProt Q62371); assay: in-vivo fluorescence imaging after tail vein injection, ALS (Optn knockout) mouse model
T2 sequence (looked up): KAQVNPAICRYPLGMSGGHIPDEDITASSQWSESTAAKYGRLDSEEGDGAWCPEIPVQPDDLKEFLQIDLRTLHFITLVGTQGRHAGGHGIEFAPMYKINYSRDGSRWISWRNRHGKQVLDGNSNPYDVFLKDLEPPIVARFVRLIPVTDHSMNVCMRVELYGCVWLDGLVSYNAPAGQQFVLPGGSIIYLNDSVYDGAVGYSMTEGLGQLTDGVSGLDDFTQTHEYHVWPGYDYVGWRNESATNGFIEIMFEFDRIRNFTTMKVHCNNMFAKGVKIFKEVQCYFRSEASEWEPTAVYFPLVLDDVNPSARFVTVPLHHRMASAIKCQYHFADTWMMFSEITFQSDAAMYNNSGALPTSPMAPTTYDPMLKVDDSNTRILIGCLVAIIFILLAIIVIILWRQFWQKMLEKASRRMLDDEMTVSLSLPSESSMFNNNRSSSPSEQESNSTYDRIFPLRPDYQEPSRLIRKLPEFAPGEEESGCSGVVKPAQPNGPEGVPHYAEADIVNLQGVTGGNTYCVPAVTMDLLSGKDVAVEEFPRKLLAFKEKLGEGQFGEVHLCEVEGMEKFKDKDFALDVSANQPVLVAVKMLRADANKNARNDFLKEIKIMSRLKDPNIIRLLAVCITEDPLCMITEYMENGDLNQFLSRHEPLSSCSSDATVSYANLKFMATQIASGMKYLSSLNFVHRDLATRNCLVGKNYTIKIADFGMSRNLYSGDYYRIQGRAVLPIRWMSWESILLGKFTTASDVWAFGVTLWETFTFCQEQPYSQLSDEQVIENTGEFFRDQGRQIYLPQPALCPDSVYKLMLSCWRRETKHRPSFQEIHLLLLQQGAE

[3] = molecular target: T2, DDR2 in the brain tissue of model mice (mouse); assay: in-vivo fluorescence imaging after tail vein injection, APP/PS1 AD mouse model

| binding [1] | binding [2] | binding [3] | Binder |
| --- | --- | --- | --- |
| binds |  |  | DDR2 nanobody 1A12 (VHH, VHH of an alpaca heavy chain antibody raised against the human DDR2 extracellular domain; Expressed and purified; also called Nb-DDR2; 1A12-VHH) VHH: EVQLVESGGGLVQPGGSLRLSCAASGYILSPNVMGWFRQAPGKGRELVAAISWGDGRTYYPDSVEGRFTISRDNAKRMVYLQMNSLRAEDTAVYYCAASRKGYPSTRSDPYNYWGQGTQVTVSS |
|  | binds | binds | DDR2 nanobody 1A12 labeled with indocyanine green (ICG) (VHH, indocyanine green (ICG) coupled with ICG-NHS; labeled residues not stated) VHH: EVQLVESGGGLVQPGGSLRLSCAASGYILSPNVMGWFRQAPGKGRELVAAISWGDGRTYYPDSVEGRFTISRDNAKRMVYLQMNSLRAEDTAVYYCAASRKGYPSTRSDPYNYWGQGTQVTVSS |
